Experimental data as given in US20260108546A1 (ELI LILLY AND COMPANY, priority 2024, published 2026).
Some entries share one result that the patent states for a list of compounds.

target: T1, hGIP-R (Homo sapiens, UniProt P48546); experiment: Functional hGIP-R Assay (cAMP formation, HTRF); assay type: cell-based; conditions: cAMP formation in HEK-293 clonal cell lines expressing hGIP-R; 30 min at 37° C.; 0.1% bovine casein; relative EC50 vs. maximal response of human GIP (1-42) OH
T1 construct: expressed in transfected cells; host or cells: HEK-293 clonal cell lines
T1 sequence (P48546 22-466): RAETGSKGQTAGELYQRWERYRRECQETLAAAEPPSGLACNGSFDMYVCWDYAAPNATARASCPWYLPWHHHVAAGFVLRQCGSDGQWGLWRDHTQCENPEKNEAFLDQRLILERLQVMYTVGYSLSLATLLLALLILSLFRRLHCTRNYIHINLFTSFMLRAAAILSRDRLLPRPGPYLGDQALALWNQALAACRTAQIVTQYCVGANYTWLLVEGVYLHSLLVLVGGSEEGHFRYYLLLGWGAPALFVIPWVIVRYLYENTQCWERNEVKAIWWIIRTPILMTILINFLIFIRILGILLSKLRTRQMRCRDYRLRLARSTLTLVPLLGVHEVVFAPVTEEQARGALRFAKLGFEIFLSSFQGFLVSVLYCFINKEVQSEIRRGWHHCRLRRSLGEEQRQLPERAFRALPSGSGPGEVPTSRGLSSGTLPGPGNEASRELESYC
Procedure, shortened: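 Relative EC50 and Emax came from four-parameter logistic fits of cAMP as a percent of the human GIP (1-42) OH maximal response. The cAMP was measured by competitive HTRF after 30 min, 37 °C compound exposure of hGIP-R HEK-293 clones in IBMX (250 μM)-containing medium.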

Compound | EC50
CN(C(=O)[C@H]1C[C@@H]1c1ccc(-c2cnc3nn(C)cc3c2)cc1)[C@H](Cc1cnn(C)c1)C(=O)NC(C)(C)Cn1nc(C(F)(F)F)cc1-c1cccc(=O)[nH]1 [Example 33, (1S,2S)-N-Methyl-N-((R)-1-((2-methyl-1-(5-(6-oxo-1,6-dihydropyridin-2-yl)-3-(trifluoromethyl)-1H-pyrazol-1-yl)propan-2-yl)amino)-3-(1-methyl-1H-pyrazol-4-yl)-1-oxopropan-2-yl)-2-(4-(2-methyl-2H-pyrazolo[3,4-b]pyridin-5-yl)phenyl) cyclopropane-1-carboxamide] | ≤ 300 nM
Cc1cn2cc(-c3ccc([C@H]4C[C@@H]4C(=O)N(C)[C@H](Cc4cnn(C)c4)C(=O)NC(C)(C)Cn4nc(C(F)(F)F)cc4-c4ccc(=O)n(C)c4)cc3)cnc2n1 [Example 91, (1S,2S)-N-Methyl-N-((R)-1-((2-methyl-1-(5-(1-methyl-6-oxo-1,6-dihydropyridin-3-yl)-3-(trifluoromethyl)-1H-pyrazol-1-yl)propan-2-yl)amino)-3-(1-methyl-1H-pyrazol-4-yl)-1-oxopropan-2-yl)-2-(4-(2-methylimidazo[1,2-a]pyrimidin-6-yl)phenyl)cyclopropane-1-carboxamide] | ≤ 300 nM
Cn1cc(C[C@@H](NC(=O)C2CC2c2ccc(-c3cnc4nccn4c3)cc2C(F)(F)F)C(=O)NC(C)(C)Cc2ccc(F)cc2)cn1 (single isomer, unassigned; isomer 2) [Example 29] | ≤ 300 nM
CN(C(=O)[C@H]1C[C@@H]1c1ccc(-c2cnc3nn(C)cc3c2)cc1)[C@H](Cc1cnn(C)c1)C(=O)NC(C)(C)Cn1nc(C(F)(F)F)cc1-c1n[nH]c(=O)s1 [Example 30, (1S,2S)-N-Methyl-N-((R)-1-((2-methyl-1-(5-(5-oxo-4,5-dihydro-1,3,4-thiadiazol-2-yl)-3-(trifluoromethyl)-1H-pyrazol-1-yl)propan-2-yl)amino)-3-(1-methyl-1H-pyrazol-4-yl)-1-oxopropan-2-yl)-2-(4-(2-methyl-2H-pyrazolo[3,4-b]pyridin-5-yl)phenyl) cyclopropane-1-carboxamide] | ≤ 300 nM
Cn1cc(C[C@@H](NC(=O)[C@H]2C[C@@H]2c2ccc(-c3cnc4nn(C)cc4c3)cc2)C(=O)NC(C)(C)Cn2nc(C(F)(F)F)cc2-c2ccn(C3CCOC3)n2)cn1 (mixture of isomers) [Example 53, (1S,2S)-N-((R)-1-((2-Methyl-1-(1-((RS)-tetrahydrofuran-3-yl)-5′-(trifluoromethyl)-1H,2′H-[3,3′-bipyrazol]-2′-yl)propan-2-yl)amino)-3-(1-methyl-1H-pyrazol-4-yl)-1-oxopropan-2-yl)-2-(4-(2-methyl-2H-pyrazolo[3,4-b]pyridin-5-yl)phenyl) cyclopropane-1-carboxamide, mixture of 2 diastereomers] | ≤ 300 nM
Cc1cn2cc(-c3ccc([C@H]4C[C@@]45CCN([C@H](Cc4cnn(C(F)F)c4)C(=O)NC(C)(C)Cn4nc(C(F)(F)F)cc4-c4cc(F)c(=O)n(C)c4)C5=O)c(F)c3)cnc2n1 [Example 100, (2R)-3-(1-(Difluoromethyl)-1H-pyrazol-4-yl)-N-(1-(5-(5-fluoro-1-methyl-6-oxo-1,6-dihydropyridin-3-yl)-3-(trifluoromethyl)-1H-pyrazol-1-yl)-2-methylpropan-2-yl)-2-((1S,3R)-1-(2-fluoro-4-(2-methylimidazo[1,2-a]pyrimidin-6-yl)phenyl)-4-oxo-5-azaspiro[2.4]heptan-5-yl)propanamide] | ≤ 300 nM
Cn1cc2cc(-c3ccc([C@H]4C[C@@]45CCN([C@H](Cc4cnn(C(F)F)c4)C(=O)NC(C)(C)Cn4nc(C(F)(F)F)cc4-c4cn(C)c(=O)c6ccnn46)C5=O)cc3)cnc2n1 [Example 133, (R)-3-(1-(Difluoromethyl)-1H-pyrazol-4-yl)-N-(2-methyl-1-(5-(5-methyl-4-oxo-4,5-dihydropyrazolo[1,5-a]pyrazin-7-yl)-3-(trifluoromethyl)-1H-pyrazol-1-yl)propan-2-yl)-2-((1R,3R)-1-(4-(2-methyl-2H-pyrazolo[3,4-b]pyridin-5-yl)phenyl)-4-oxo-5-azaspiro[2.4]heptan-5-yl)propanamide] | ≤ 300 nM
[2H]C([2H])([2H])n1cc(C[C@H](C(=O)NC(C)(C)Cn2nc(C(F)(F)F)cc2-c2ccc(C(C)(C)O)nc2)N2CC[C@@]3(C[C@@H]3c3ccc(-c4cnc5nn(C)cc5c4)cc3Cl)C2=O)cn1 [Example 194, (R)-2-((1S,3R)-1-(2-chloro-4-(2-methyl-2H-pyrazolo[3,4-b]pyridin-5-yl)phenyl)-4-oxo-5-azaspiro[2.4]heptan-5-yl)-N-(1-(5-(6-(2-hydroxypropan-2-yl)pyridin-3-yl)-3-(trifluoromethyl)-1H-pyrazol-1-yl)-2-methylpropan-2-yl)-3-(1-(methyl-d3)-1H-pyrazol-4-yl)propanamide] | ≤ 300 nM
Cn1cc(C[C@@H](NC(=O)[C@H]2C[C@@H]2c2ccc(-c3cnc4nn(C)cc4c3)cc2)C(=O)NC(C)(C)Cn2nc(C(F)(F)F)cc2-c2n[nH]c(=O)s2)cn1 [Example 16, (1S,2S)-N-((R)-1-((2-Methyl-1-(5-(5-oxo-4,5-dihydro-1,3,4-thiadiazol-2-yl)-3-(trifluoromethyl)-1H-pyrazol-1-yl)propan-2-yl)amino)-3-(1-methyl-1H-pyrazol-4-yl)-1-oxopropan-2-yl)-2-(4-(2-methyl-2H-pyrazolo[3,4-b]pyridin-5-yl)phenyl) cyclopropane-1-carboxamide] | ≤ 300 nM
Cn1cc2cc(-c3ccc([C@H]4C[C@@]45CCN([C@H](Cc4cnn(C(F)F)c4)C(=O)NC(C)(C)Cn4nc(C(F)(F)F)cc4-c4ccc(=O)n(C)c4)C5=O)c(F)c3)cnc2n1 [Example 117, (2R)-3-(1-(Difluoromethyl)-1H-pyrazol-4-yl)-2-((1S,3R)-1-(2-fluoro-4-(2-methyl-2H-pyrazolo[3,4-b]pyridin-5-yl)phenyl)-4-oxo-5-azaspiro[2.4]heptan-5-yl)-N-(2-methyl-1-(5-(1-methyl-6-oxo-1,6-dihydropyridin-3-yl)-3-(trifluoromethyl)-1H-pyrazol-1-yl)propan-2-yl)propanamide] | ≤ 300 nM
Cn1cc2cc(-c3ccc([C@H]4C[C@@]45CCN([C@H](Cc4cnn(C(F)F)c4)C(=O)NC(C)(C)Cn4nc(C(F)(F)F)cc4-c4ccn(C6CC6)c(=O)n4)C5=O)c(Cl)c3)cnc2n1 [Example 161, (R)-2-((1S,3R)-1-(2-chloro-4-(2-methyl-2H-pyrazolo[3,4-b]pyridin-5-yl)phenyl)-4-oxo-5-azaspiro[2.4]heptan-5-yl)-N-(1-(5-(1-cyclopropyl-2-oxo-1,2-dihydropyrimidin-4-yl)-3-(trifluoromethyl)-1H-pyrazol-1-yl)-2-methylpropan-2-yl)-3-(1-(difluoromethyl)-1H-pyrazol-4-yl)propanamide] | ≤ 300 nM
Cn1cc(C[C@@H](NC(=O)[C@H]2C[C@@H]2c2ccc(-c3cnc4nc(C(F)(F)F)cn4c3)cc2)C(=O)NC(C)(C)Cn2nc(C(F)(F)F)cc2-n2ccnn2)cn1 [Example 23, (1S,2S)-N-((R)-1-((1-(5-(1H-1,2,3-Triazol-1-yl)-3-(trifluoromethyl)-1H-pyrazol-1-yl)-2-methylpropan-2-yl)amino)-3-(1-methyl-1H-pyrazol-4-yl)-1-oxopropan-2-yl)-2-(4-(2-(trifluoromethyl)imidazo [1,2-a]pyrimidin-6-yl)phenyl) cyclopropane-1-carboxamide] | ≤ 300 nM
Cc1cn2cc(-c3ccc([C@H]4C[C@@]45CCN([C@H](Cc4cnn(C(F)F)c4)C(=O)NC(C)(C)Cn4nc(C(F)(F)F)cc4-c4ccc(=O)[nH]n4)C5=O)c(F)c3)cnc2n1 [Example 149, (R)-3-(1-(Difluoromethyl)-1H-pyrazol-4-yl)-2-((1S,3R)-1-(2-fluoro-4-(2-methylimidazo[1,2-a]pyrimidin-6-yl)phenyl)-4-oxo-5-azaspiro[2.4]heptan-5-yl)-N-(2-methyl-1-(5-(6-oxo-1,6-dihydropyridazin-3-yl)-3-(trifluoromethyl)-1H-pyrazol-1-yl)propan-2-yl)propanamide] | ≤ 300 nM
Cn1cc2cc(-c3ccc([C@H]4C[C@@]45CCN([C@H](Cc4cnn(C(F)F)c4)C(=O)NC(C)(C)Cn4nc(C(F)(F)F)cc4-c4cnc(N6CCC(=O)CC6)nc4)C5=O)cc3)cnc2n1 [Example 142, (R)-3-(1-(Difluoro-methyl)-1H-pyrazol-4-yl)-N-(2-methyl-1-(5-(2-(4-oxopiperidin-1-yl)pyrimidin-5-yl)-3-(trifluoromethyl)-1H-pyrazol-1-yl)propan-2-yl)-2-((1R,3R)-1-(4-(2-methyl-2H-pyrazolo[3,4-b]pyridin-5-yl)phenyl)-4-oxo-5-azaspiro[2.4]heptan-5-yl)propanamide] | ≤ 300 nM
CN(C(=O)[C@H]1C[C@@H]1c1ccc(-c2cnc3nccn3c2)cc1)[C@H](Cc1cnn(C)c1)C(=O)NC(C)(C)Cn1nc(C(F)(F)F)cc1-c1ccc(=O)n(C)c1 [Example 34, (1S,2S)-2-(4-(imidazo[1,2-a]pyrimidin-6-yl)phenyl)-N-methyl-N-((R)-1-((2-methyl-1-(5-(1-methyl-6-oxo-1,6-dihydropyridin-3-yl)-3-(trifluoromethyl)-1H-pyrazol-1-yl)propan-2-yl)amino)-3-(1-methyl-1H-pyrazol-4-yl)-1-oxopropan-2-yl)cyclopropane-1-carboxamide] | ≤ 300 nM
